From the supplement of paper PMC10849652
This is one part of the list.

Protein sequences, listed by entry. Tags and fused reporters are not part of them. Lines headed by an entry give the natural chain unless they say otherwise; changes in a name come on top.
UniProt Q8TDP1: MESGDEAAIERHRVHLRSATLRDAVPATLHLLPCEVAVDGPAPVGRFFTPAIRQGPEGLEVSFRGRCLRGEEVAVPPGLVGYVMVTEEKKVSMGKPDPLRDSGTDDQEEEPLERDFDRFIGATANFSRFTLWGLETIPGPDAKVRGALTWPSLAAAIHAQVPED
UniProt Q5XPI4: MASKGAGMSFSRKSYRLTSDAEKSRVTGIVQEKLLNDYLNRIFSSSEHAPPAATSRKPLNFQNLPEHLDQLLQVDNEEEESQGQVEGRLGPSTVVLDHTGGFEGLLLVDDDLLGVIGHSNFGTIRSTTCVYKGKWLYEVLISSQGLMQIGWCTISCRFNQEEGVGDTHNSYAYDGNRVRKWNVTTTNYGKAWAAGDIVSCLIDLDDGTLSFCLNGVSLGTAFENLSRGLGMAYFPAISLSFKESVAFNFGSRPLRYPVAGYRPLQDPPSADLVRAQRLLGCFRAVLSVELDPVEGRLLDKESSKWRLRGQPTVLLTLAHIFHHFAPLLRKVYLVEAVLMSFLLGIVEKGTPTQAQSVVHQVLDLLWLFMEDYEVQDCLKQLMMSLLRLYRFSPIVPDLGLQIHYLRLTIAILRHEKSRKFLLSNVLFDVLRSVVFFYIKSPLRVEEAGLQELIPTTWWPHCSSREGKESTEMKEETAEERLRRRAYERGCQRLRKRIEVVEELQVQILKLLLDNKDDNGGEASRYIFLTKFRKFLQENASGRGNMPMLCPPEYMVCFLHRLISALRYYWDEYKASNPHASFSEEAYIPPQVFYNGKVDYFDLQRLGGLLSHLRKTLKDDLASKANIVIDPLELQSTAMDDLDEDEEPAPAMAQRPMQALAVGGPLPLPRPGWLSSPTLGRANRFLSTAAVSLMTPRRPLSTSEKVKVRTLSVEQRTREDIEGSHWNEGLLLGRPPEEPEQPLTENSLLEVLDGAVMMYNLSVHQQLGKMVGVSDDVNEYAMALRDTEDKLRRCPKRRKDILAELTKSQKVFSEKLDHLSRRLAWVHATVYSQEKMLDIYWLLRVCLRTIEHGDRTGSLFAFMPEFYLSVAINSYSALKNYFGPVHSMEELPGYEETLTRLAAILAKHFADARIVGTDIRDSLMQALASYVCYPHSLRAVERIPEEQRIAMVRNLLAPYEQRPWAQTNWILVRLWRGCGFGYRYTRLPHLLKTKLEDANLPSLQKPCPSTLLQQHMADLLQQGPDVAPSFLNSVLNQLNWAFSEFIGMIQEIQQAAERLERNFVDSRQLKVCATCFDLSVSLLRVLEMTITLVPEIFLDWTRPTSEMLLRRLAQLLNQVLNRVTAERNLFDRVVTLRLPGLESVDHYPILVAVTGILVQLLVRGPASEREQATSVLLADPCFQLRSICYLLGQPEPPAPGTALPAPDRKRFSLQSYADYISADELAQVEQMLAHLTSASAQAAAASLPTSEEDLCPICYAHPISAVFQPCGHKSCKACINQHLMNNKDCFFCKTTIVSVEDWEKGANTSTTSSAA
UniProt Q9NVN3: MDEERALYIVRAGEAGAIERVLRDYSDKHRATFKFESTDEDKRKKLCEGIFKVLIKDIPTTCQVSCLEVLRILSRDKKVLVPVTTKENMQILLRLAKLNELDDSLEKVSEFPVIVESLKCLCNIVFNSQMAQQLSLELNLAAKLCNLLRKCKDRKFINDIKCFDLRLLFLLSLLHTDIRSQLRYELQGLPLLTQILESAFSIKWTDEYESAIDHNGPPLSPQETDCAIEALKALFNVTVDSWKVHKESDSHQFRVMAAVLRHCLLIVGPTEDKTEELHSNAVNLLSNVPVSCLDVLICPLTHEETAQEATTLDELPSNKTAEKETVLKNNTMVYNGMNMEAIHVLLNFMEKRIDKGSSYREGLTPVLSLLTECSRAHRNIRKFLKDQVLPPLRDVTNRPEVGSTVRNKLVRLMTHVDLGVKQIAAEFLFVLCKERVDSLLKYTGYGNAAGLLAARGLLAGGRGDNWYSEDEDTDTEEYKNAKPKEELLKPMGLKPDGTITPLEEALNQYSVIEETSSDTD
UniProt Q9BWH6: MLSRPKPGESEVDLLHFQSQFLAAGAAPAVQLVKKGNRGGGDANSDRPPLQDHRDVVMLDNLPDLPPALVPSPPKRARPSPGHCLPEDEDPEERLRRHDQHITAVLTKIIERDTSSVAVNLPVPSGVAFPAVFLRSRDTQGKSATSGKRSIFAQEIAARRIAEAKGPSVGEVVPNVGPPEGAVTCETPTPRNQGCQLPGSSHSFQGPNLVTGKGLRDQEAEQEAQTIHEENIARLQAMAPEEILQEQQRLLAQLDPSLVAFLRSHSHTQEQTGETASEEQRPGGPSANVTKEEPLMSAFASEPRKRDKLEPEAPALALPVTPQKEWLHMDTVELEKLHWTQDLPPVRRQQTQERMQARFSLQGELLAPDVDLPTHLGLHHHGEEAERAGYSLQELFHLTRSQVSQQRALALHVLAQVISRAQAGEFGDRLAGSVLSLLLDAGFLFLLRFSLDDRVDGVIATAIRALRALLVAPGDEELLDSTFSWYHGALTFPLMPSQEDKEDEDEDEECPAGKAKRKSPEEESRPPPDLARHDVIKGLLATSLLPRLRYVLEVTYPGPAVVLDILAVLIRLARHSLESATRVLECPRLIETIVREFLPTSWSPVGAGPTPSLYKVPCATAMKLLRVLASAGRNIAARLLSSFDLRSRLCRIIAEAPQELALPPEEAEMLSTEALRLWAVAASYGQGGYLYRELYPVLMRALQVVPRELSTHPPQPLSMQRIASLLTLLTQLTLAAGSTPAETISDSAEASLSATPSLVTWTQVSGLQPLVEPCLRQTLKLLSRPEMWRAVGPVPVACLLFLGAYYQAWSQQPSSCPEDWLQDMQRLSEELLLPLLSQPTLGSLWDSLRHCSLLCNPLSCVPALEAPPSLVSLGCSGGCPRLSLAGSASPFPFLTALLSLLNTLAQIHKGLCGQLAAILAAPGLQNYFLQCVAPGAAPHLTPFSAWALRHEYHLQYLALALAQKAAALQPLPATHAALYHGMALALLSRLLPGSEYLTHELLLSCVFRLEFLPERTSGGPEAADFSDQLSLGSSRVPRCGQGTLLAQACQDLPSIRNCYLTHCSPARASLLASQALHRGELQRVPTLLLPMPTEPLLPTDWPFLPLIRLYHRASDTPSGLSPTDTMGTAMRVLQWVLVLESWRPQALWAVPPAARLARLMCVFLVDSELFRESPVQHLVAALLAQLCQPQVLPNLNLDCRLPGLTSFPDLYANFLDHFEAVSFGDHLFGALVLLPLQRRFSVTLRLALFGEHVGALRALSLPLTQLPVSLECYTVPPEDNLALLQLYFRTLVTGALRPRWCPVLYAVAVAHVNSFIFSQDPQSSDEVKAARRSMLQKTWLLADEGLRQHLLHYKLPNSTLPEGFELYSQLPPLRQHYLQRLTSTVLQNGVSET
UniProt Q9Y508: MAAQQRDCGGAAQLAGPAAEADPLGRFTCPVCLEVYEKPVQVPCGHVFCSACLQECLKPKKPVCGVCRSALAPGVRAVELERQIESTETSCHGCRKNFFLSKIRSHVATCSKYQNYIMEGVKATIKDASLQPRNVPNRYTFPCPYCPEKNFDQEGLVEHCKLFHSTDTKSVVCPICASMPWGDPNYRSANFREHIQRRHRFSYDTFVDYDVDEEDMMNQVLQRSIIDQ
UniProt Q01974, whole entry, looked up: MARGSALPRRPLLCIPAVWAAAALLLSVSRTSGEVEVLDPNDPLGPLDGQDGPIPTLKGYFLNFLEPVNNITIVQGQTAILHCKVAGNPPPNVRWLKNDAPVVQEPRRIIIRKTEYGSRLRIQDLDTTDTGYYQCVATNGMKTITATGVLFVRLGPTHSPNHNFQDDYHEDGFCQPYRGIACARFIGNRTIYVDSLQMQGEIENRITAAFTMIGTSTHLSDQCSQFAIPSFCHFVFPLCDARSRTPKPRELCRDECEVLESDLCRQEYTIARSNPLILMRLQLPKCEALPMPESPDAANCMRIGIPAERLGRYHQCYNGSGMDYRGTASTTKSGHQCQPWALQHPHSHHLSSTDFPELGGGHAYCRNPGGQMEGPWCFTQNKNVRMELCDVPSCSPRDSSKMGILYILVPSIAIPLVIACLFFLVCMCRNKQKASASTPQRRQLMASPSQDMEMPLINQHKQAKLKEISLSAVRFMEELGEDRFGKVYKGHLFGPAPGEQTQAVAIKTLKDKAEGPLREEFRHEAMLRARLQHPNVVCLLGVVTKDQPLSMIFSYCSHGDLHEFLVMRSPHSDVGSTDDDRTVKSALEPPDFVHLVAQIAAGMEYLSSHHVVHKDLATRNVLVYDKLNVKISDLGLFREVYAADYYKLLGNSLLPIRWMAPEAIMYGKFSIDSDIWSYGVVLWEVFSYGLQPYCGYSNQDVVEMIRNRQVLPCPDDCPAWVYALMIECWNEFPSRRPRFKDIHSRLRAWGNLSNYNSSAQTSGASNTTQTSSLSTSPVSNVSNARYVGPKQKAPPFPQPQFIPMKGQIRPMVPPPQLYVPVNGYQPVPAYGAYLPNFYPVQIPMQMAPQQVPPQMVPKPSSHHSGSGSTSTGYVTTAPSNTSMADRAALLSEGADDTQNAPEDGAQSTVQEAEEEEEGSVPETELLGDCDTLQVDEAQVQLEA
UniProt Q9H7B2: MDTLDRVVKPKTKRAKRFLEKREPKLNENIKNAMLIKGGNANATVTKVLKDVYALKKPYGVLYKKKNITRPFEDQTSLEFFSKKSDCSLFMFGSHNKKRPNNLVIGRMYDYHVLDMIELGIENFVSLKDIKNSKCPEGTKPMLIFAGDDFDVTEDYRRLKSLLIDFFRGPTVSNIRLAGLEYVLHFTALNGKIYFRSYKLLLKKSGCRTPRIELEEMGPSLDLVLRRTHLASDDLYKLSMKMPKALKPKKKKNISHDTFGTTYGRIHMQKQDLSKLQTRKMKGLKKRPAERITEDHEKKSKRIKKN
UniProt P52758: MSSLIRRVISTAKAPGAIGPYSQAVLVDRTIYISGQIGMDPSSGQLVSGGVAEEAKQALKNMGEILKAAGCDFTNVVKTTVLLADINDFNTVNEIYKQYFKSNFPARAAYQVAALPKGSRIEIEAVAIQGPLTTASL
UniProt Q9P0P0: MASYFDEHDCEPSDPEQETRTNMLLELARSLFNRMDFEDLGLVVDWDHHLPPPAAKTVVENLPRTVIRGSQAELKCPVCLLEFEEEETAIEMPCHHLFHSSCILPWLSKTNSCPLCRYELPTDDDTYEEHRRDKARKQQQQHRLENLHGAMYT
UniProt Q8WVD5: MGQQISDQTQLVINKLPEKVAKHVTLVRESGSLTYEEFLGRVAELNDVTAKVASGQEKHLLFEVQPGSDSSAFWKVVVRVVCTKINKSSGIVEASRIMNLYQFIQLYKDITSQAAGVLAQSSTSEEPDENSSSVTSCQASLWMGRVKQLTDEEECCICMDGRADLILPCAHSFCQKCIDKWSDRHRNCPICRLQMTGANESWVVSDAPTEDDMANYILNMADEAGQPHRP
UniProt O43148, whole entry, looked up: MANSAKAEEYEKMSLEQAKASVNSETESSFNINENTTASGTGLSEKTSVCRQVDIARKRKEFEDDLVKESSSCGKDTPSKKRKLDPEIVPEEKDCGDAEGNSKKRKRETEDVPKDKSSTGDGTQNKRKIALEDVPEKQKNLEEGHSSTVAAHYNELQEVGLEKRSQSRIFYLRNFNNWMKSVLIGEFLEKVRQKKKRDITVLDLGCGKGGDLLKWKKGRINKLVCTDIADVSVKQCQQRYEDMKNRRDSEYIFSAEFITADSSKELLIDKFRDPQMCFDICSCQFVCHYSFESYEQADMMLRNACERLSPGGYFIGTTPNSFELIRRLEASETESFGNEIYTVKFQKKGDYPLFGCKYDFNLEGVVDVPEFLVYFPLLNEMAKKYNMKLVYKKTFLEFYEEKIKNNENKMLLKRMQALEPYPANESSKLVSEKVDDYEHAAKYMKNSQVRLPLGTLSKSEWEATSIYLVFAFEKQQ

How the values were obtained:
Test in all cases: log2 fold change, soluble protein after heating vs DMSO (PISA); higher = thermal stabilisation; K562 lysate, 10 uM; active = over 0.2 and 3.5 SD of the protein, either way, in both replicates (recomputed)
[1] = compound: CN1CC[C@H](c2c(O)cc(O)c3c(=O)cc(-c4ccccc4Cl)oc23)[C@H](O)C1 [alvocidib]
In short: (§1)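 Following dounce homogenisation of K562 pellets in PBS pH 7.4 with 1 mM MgCl2, crude extract at 1 mg/mL protein was incubated for 30 min with 10 μM compound. Aliquots were then heated for 3 min over 48°C-58°C and pooled, NP-40 was added to 0.5% at 4°C, and soluble protein was recovered as the supernatant at 21,000xg for 90 min. Channel-sum-equalised TMTpro 16plex LC-MS/MS quantified this protein. Each value, from duplicates, is a log-two fold change in thermal stability relative to solvent controls.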

[2] = compound: CN1CCc2c(c3ccccc3n2Cc2ccc(C(=O)NO)cc2)C1 [Tubastatin A]
In short: as §1

[3] = compound: CNC(=O)C1=CC=CC=C1NC2=NC(=NC=C2Cl)NC3=C(C=C(C=C3)N4CCOCC4)OC
In short: as §1

[4] = compound: CNC(=O)c1ccc(Nc2ncc(C(F)(F)F)c(NCc3nccnc3N(C)S(C)(=O)=O)n2)cc1 [defactinib]
In short: as §1

[5] = compound: CNc1nc(-c2ccc3c(N)n[nH]c3c2)cc(N2C[C@@H](C(=O)NC3CCCCC3)CC[C@H]2C)n1
In short: as §1

[6] = compound: COC(=O)N[C@@H](C)CNc1nccc(-c2cn(C(C)C)nc2-c2cc(Cl)cc(NS(C)(=O)=O)c2F)n1 [encorafenib]
In short: as §1

[7] = compound: COC(=O)[C@H](CCSC)NC(=O)C1=C(C=C(C=C1)NC[C@H](CS)N)C2=CC=CC=C2
In short: as §1

[8] = compound: COc1cc(Nc2ncc3c(n2)-c2ccc(Cl)cc2C(c2c(F)cccc2OC)=NC3)ccc1C(=O)O [alisertib]
In short: as §1

[9] = compound: COc1cc2nc(-c3cc(F)ccc3O)nc(N[C@@H]3CNC[C@H]3C(C)(C)O)c2cc1OC
In short: as §1

[10] = compound: COc1cc2ncnc(Nc3ccc(F)c(Cl)c3)c2cc1OCCCN1CCOCC1 [gefitinib]
In short: as §1

Measured: log2 fold change

RNASEH2C (UniProt Q8TDP1)
inactive: [1] -0.074 | [2] -0.052 | [3] -0.009 | [4] -0.001 | [5] -0.042 | [6] 0.027 | [7] 0.076 | [8] 0.049 | [9] -0.018 | [10] 0.063

RPL11 (UniProt P62913)
inactive: [1] 0.003 | [2] -0.005 | [3] -0.023 | [4] -0.041 | [5] 0.005 | [6] -0.013 | [7] 0.026 | [8] 0.011 | [9] -0.006 | [10] -0.002

RNF123 (UniProt Q5XPI4)
inactive: [1] 0.011 | [2] -0.047 | [3] -0.002 | [4] -0.027 | [5] 0.017 | [6] 0.044 | [7] -0.062 | [8] -0.004 | [9] 0.017 | [10] 0.011

RPL10 (UniProt P27635)
inactive: [1] 0.062 | [2] 0.003 | [3] 0.004 | [4] 0.03 | [5] 0.008 | [6] 0.053 | [7] 0.004 | [8] 0.002 | [9] -0.008 | [10] -0.003

RPL34 (UniProt P49207)
inactive: [1] -0.005 | [2] -0.007 | [3] -0.017 | [4] 0.009 | [5] 0.037 | [6] 0 | [7] -0.008 | [8] 0.029 | [9] -0.015 | [10] -0.04

RIC8B isoform 1 (UniProt Q9NVN3)
inactive: [1] -0.009 | [2] -0.106 | [3] -0.011 | [4] 0.039 | [5] 0.144 | [6] 0.11 | [7] 0.114 | [8] 0.003 | [9] -0.017 | [10] 0.032

RPAP1 (UniProt Q9BWH6)
inactive: [1] -0.001 | [2] -0.077 | [3] 0.016 | [4] -0.006 | [5] 0.007 | [6] 0.019 | [7] -0.069 | [8] 0.013 | [9] 0.027 | [10] -0.007

RNF114 (UniProt Q9Y508)
inactive: [1] -0.021 | [2] 0.06 | [3] 0.052 | [4] -0.037 | [5] 0.039 | [6] 0.005 | [7] -0.06 | [8] 0.032 | [9] -0.004 | [10] -0.136

RPL27A (UniProt P46776)
inactive: [1] -0.013 | [2] 0.053 | [3] -0.036 | [4] 0.008 | [5] -0.041 | [6] -0.01 | [7] -0.006 | [8] 0.022 | [9] -0.009 | [10] -0.029

ROR2 (UniProt Q01974)
inactive: [1] -0.006 | [2] -0.018 | [3] -0.018 | [4] 0.011 | [5] -0.024 | [6] 0.045 | [7] -0.015 | [8] 0.013 | [9] 0.026 | [10] 0.037

RPF2 (UniProt Q9H7B2)
inactive: [1] 0.074 | [2] -0.094 | [3] 0.007 | [4] -0.068 | [5] 0.049 | [6] -0.026 | [7] -0.055 | [8] 0.082 | [9] -0.027 | [10] -0.005

RIDA (UniProt P52758)
inactive: [1] 0.022 | [2] -0.009 | [3] 0.032 | [4] 0.02 | [5] -0.021 | [6] -0.027 | [7] -0.044 | [8] -0.063 | [9] -0.012 | [10] -0.045

RNF181 (UniProt Q9P0P0)
inactive: [1] 0 | [2] 0.021 | [3] 0.037 | [4] 0.044 | [5] -0.008 | [6] 0.029 | [7] -0.201 | [8] -0.011 | [9] -0.004 | [10] -0.083

Random excerpt: 2 records from the list
ROR2 (UniProt Q01974)
inactive: [1] -0.006 | [2] -0.018 | [3] -0.018 | [4] 0.011 | [5] -0.024 | [6] 0.045 | [7] -0.015 | [8] 0.013 | [9] 0.026 | [10] 0.037

RNF181 (UniProt Q9P0P0)
inactive: [1] 0 | [2] 0.021 | [3] 0.037 | [4] 0.044 | [5] -0.008 | [6] 0.029 | [7] -0.201 | [8] -0.011 | [9] -0.004 | [10] -0.083

(further entries)

RNF141 (UniProt Q8WVD5)
inactive: [1] -0.027 | [2] -0.082 | [3] 0.067 | [4] 0.004 | [5] 0.07 | [6] 0.145 | [7] -0.146 | [8] -0.028 | [9] 0.02 | [10] 0.052

RNMT isoform 2 (UniProt O43148)
inactive: [1] -0.036 | [2] -0.015 | [3] -0.004 | [4] 0 | [5] -0.027 | [6] 0.007 | [7] 0.061 | [8] -0.01 | [9] 0.001 | [10] -0.026
